Measured values published in article PMC1950744, “Transcription Termination Defective Mutants of Rho: Role of Different Functions of Rho in Releasing RNA from the Elongation Complex” (Journal of Molecular Biology, 2007).

Key:
[1] = molecular target: Rho P279S (Escherichia coli) (UniProt P0AG30); assay: ATPase activation (secondary site); details: 1 uM (dC)34, 1 mM ATP, binding defect or slow hydrolysis; 25 mM Tris-HCl pH 8.0, 5 mM MgCl2, 50 mM KCl, 1 mM DTT, 0.1 mg/ml BSA, 37 C, 5 min; 10 nM labeled oligo; Rho as hexamer; recombinant protein; protein details: C-terminal His
[2] = molecular target: Rho Y274D (Escherichia coli) (UniProt P0AG30); assay: ATPase activation (secondary site); details: 1 uM (dC)34, 1 mM ATP, binding defect or slow hydrolysis; 25 mM Tris-HCl pH 8.0, 5 mM MgCl2, 50 mM KCl, 1 mM DTT, 0.1 mg/ml BSA, 37 C, 5 min; 10 nM labeled oligo; Rho as hexamer; recombinant protein; protein details: C-terminal His
[3] = molecular target: Rho N340S (Escherichia coli) (UniProt P0AG30); assay: ATPase activation (secondary site); details: 1 uM (dC)34, 1 mM ATP, binding defect or slow hydrolysis; 25 mM Tris-HCl pH 8.0, 5 mM MgCl2, 50 mM KCl, 1 mM DTT, 0.1 mg/ml BSA, 37 C, 5 min; 10 nM labeled oligo; Rho as hexamer; recombinant protein; protein details: C-terminal His
[4] = molecular target: Rho G324D (Escherichia coli) (UniProt P0AG30); assay: ATPase activation (secondary site); details: 1 uM (dC)34, 1 mM ATP, binding defect or slow hydrolysis; 25 mM Tris-HCl pH 8.0, 5 mM MgCl2, 50 mM KCl, 1 mM DTT, 0.1 mg/ml BSA, 37 C, 5 min; 10 nM labeled oligo; Rho as hexamer; recombinant protein; protein details: C-terminal His
[5] = molecular target: Rho G51V (Escherichia coli) (UniProt P0AG30); assay: ATPase activation (secondary site); details: 1 uM (dC)34, 1 mM ATP, binding defect or slow hydrolysis; 25 mM Tris-HCl pH 8.0, 5 mM MgCl2, 50 mM KCl, 1 mM DTT, 0.1 mg/ml BSA, 37 C, 5 min; 10 nM labeled oligo; Rho as hexamer; recombinant protein; protein details: C-terminal His
[6] = molecular target: Rho WT (Escherichia coli) (UniProt P0AG30); assay: EMSA; details: 25 mM Tris-HCl pH 8.0, 5 mM MgCl2, 50 mM KCl, 1 mM DTT, 0.1 mg/ml BSA, 37 C, 5 min; 10 nM labeled oligo; Rho as hexamer; recombinant protein; protein details: C-terminal His

Sequence: CCCCCCCCCC [rC10]
- half-maximal binding [1]: > 200 µM
- half-maximal binding [2]: > 200 µM
- half-maximal binding [3]: > 200 µM
- half-maximal binding [4]: > 200 µM
- half-maximal binding [5]: > 200 µM
- binding result [6]: binds

For at least one entry, the source does not settle the construct or the ends of the probe. For part of these data: At least one verdict rests on a figure or table, not on a statement of the authors.
